The supplement of paper PMC12067093, “Discovery and optimisation of a covalent ligand for TRIM25 and its application to targeted protein ubiquitination” (Chemical Science, 2025)
The other results are listed elsewhere or left out.

Amino acid sequences for entries named in this document (tags omitted). A change or cut given only in a name is not applied to a line headed by its entry.
UniProt P06748, whole entry: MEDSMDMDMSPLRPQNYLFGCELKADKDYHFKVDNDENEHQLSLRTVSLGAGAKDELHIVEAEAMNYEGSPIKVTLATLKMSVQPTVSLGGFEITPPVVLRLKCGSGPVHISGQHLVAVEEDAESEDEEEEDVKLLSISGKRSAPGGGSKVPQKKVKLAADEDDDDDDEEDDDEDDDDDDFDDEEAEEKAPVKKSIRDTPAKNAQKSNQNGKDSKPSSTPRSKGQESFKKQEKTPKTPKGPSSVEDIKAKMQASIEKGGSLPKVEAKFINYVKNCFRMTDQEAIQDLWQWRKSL
UniProt Q9ULX3: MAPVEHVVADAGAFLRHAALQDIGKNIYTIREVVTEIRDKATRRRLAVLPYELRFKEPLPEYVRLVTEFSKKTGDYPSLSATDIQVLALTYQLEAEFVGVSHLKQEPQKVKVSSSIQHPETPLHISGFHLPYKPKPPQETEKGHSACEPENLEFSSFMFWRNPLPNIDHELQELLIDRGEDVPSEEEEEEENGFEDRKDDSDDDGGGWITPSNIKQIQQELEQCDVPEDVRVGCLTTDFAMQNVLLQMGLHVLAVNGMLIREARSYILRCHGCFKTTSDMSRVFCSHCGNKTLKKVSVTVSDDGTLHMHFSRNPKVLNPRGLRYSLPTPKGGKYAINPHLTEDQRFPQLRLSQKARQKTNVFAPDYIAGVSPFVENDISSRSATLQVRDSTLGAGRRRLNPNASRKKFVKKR
UniProt Q9NXX6: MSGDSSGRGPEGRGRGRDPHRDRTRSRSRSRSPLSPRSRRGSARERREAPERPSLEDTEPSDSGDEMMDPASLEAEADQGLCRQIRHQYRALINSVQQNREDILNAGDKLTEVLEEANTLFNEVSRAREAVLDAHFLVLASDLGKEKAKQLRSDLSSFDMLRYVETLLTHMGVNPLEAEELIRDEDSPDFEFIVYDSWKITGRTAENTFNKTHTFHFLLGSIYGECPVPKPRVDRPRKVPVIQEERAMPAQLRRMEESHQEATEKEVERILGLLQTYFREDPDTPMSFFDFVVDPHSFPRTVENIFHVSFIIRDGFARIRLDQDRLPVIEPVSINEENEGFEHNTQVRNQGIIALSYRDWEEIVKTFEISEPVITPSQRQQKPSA
UniProt Q9H6R4: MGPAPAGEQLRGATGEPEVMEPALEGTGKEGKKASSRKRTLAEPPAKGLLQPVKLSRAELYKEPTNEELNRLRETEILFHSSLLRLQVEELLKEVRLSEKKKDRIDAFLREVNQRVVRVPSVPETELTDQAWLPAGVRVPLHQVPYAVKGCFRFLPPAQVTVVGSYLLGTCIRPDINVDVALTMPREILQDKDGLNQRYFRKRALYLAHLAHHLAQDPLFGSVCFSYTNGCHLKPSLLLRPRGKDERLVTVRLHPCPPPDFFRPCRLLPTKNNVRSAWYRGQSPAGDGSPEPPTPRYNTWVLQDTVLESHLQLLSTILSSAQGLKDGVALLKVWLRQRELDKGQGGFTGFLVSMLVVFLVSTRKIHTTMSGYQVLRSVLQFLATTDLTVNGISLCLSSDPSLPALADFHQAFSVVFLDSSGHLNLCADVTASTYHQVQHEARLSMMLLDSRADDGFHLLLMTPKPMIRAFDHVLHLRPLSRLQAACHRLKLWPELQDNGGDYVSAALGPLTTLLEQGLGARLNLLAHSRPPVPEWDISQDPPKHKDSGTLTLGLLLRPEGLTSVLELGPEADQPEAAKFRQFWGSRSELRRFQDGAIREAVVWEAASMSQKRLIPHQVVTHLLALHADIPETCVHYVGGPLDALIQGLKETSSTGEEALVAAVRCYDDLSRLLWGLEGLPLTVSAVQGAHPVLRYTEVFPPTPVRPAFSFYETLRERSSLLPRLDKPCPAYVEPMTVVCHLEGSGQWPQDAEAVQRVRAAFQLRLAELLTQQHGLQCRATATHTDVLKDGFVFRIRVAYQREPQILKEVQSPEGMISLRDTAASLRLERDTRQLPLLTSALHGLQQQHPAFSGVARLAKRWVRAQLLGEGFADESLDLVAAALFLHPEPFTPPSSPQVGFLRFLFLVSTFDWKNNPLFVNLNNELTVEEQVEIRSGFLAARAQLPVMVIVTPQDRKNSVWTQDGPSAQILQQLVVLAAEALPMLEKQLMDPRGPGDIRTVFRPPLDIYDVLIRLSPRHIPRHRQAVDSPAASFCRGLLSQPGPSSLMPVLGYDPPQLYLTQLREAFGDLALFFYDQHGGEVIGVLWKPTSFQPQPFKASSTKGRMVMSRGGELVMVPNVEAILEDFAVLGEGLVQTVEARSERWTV
UniProt Q8N5F7: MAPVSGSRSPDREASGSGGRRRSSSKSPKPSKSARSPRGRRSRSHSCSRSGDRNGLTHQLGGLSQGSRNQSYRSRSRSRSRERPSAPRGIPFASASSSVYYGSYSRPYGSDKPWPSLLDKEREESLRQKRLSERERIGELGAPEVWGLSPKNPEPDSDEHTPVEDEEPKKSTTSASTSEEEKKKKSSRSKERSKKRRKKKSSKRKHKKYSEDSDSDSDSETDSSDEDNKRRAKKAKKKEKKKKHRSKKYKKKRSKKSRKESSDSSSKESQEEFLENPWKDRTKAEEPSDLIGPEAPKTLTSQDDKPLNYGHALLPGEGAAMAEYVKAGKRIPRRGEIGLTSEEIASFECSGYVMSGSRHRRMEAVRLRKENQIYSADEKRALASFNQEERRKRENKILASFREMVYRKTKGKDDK
UniProt Q9BSC4: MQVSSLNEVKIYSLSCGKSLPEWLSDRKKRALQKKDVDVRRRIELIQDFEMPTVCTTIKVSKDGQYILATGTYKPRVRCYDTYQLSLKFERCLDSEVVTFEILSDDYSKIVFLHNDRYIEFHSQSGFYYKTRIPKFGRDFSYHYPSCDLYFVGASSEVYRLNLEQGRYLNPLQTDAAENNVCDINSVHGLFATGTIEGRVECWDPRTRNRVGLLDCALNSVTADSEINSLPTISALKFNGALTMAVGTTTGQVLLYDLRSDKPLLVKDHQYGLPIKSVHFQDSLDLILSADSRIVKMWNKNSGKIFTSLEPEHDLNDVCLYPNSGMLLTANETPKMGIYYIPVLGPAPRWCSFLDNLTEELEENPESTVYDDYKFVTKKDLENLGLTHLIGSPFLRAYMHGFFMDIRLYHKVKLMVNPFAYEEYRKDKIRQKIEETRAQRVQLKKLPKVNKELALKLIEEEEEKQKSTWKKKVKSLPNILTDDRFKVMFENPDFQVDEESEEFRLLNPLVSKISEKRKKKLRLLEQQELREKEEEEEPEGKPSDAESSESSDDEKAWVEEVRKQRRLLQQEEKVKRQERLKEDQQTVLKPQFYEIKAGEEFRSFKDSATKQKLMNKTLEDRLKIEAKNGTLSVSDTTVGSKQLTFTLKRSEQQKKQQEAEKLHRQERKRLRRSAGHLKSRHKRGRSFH
UniProt Q96CB9: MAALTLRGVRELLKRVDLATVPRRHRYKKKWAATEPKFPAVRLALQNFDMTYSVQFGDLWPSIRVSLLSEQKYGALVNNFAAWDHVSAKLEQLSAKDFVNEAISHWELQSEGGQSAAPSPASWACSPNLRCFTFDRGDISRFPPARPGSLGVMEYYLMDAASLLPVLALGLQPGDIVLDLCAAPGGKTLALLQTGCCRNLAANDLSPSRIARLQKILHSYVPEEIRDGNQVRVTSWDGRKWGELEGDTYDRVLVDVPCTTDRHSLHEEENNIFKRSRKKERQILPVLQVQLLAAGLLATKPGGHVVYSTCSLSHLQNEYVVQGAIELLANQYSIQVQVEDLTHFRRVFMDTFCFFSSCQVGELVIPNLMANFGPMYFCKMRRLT
UniProt Q5SY16: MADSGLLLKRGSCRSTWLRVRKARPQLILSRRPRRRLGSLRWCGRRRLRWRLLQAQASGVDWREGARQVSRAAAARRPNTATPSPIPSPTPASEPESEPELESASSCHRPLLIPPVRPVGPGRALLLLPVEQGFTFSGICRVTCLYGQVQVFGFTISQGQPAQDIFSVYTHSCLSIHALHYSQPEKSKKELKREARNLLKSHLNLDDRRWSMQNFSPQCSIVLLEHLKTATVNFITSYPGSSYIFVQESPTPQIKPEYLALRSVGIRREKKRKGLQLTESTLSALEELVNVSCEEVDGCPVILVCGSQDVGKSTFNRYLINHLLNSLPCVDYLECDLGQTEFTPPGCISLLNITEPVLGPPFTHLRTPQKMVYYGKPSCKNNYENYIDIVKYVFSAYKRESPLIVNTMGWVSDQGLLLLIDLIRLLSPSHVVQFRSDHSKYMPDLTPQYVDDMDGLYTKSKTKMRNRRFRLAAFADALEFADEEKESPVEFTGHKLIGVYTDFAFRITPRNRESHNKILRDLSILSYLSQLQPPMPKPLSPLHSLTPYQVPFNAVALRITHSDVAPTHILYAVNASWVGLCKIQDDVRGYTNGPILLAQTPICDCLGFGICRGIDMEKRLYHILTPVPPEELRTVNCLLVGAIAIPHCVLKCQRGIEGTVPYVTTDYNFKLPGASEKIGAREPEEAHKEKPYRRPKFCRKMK
UniProt Q86WI3: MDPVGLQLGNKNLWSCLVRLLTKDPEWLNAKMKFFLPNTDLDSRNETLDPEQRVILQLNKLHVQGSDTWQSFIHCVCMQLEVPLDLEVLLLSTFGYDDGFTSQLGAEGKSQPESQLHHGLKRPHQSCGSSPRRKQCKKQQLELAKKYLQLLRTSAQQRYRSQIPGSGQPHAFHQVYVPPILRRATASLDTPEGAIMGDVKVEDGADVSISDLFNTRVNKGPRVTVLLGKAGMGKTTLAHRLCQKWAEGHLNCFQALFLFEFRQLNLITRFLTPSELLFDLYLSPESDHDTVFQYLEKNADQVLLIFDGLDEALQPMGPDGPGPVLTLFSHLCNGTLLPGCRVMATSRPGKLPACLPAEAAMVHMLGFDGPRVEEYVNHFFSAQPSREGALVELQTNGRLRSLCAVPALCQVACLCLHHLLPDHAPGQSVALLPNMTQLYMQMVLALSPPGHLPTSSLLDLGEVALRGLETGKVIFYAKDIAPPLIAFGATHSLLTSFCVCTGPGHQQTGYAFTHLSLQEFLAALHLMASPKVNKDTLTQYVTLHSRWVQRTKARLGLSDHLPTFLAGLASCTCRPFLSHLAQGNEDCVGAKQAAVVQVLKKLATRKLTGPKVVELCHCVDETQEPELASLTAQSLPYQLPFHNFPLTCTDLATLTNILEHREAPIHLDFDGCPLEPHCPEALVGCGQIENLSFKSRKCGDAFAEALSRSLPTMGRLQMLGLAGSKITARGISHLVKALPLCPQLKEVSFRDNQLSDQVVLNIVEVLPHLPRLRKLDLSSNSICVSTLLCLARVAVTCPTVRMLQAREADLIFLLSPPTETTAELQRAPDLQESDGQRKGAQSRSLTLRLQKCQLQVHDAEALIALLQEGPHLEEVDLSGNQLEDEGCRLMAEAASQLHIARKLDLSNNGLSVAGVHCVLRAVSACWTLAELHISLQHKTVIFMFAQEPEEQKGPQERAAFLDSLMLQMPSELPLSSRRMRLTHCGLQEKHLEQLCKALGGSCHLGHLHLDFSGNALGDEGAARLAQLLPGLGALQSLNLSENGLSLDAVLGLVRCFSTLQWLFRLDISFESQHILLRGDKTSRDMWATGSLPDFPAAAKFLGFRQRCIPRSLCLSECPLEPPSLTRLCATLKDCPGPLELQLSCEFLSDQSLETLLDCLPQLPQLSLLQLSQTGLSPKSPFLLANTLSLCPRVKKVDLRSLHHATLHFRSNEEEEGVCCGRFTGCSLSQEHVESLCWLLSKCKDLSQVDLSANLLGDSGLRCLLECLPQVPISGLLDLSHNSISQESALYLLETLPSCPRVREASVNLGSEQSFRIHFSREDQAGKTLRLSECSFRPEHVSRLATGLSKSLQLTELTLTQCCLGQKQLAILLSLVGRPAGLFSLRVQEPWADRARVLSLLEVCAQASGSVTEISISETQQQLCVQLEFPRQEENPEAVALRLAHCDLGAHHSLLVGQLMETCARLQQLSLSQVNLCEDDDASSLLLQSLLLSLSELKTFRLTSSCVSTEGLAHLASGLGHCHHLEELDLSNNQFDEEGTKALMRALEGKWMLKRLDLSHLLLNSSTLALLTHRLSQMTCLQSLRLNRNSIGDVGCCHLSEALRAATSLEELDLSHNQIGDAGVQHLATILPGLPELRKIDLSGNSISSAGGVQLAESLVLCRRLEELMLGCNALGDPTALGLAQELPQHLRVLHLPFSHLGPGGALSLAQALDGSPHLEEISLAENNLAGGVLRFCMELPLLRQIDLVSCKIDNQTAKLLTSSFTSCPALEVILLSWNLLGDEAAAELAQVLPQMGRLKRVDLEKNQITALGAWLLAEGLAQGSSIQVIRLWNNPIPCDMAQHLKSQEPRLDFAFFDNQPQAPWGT
UniProt Q9HAN9, whole entry, looked up: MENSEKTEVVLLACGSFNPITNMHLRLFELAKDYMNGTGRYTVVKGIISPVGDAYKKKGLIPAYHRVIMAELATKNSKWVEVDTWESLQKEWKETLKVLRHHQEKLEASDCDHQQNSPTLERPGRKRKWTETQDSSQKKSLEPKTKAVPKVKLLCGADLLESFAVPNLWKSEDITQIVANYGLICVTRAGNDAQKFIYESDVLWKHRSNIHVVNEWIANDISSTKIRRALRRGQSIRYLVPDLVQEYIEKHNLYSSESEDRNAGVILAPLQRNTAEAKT

Compound: CC1Cc2ccccc2N1C(=O)C1CCCN(C1)C(=O)CCl (mixture of isomers) [TRIM25 ligand 11 (diastereomer mixture)]
Assay: probe-labelled cysteine peptide fold change vs DMSO (competition) (log2 fold change); higher = less target engagement (more negative = stronger competition)
Details: THP-1, incubation time: 4 h
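Also: competitive chemoproteomic profiling in live THP-1 cells with an iodoacetamide desthiobiotin (IA-DTB) probe, comparing probe-labelled peptide intensities in compound-treated cells against DMSO-treated controls.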

NPM1_P06748_21_MEDSMDMDMSPLRPQNYLFGCELK (UniProt P06748)
probe-labelled cysteine peptide fold change (10 µM): -0.279 | probe-labelled cysteine peptide fold change (50 µM): -0.642

NSMAF_Q92636_803+809_EGTVNIWDLTTATLMHQIPCHSGIVCDTAFSPDSR (UniProt Q92636)
probe-labelled cysteine peptide fold change (10 µM): -0.00486 | probe-labelled cysteine peptide fold change (50 µM): -0.0727

NOB1_Q9ULX3_147_GHSACEPENLEFSSFMFWR (UniProt Q9ULX3)
probe-labelled cysteine peptide fold change (10 µM): -0.0264 | probe-labelled cysteine peptide fold change (50 µM): -0.119

NT5C3A_Q9H0P0_120_LVTDECR (UniProt Q9H0P0)
probe-labelled cysteine peptide fold change (10 µM): 0.0452 | probe-labelled cysteine peptide fold change (50 µM): 0.0745

NSMCE4A_Q9NXX6_226_THTFHFLLGSIYGECPVPKPR (UniProt Q9NXX6)
probe-labelled cysteine peptide fold change (10 µM): -0.243 | probe-labelled cysteine peptide fold change (50 µM): -0.313

NT5C2_P49902_121_VDAYGNLLVCAHGFNFIR (UniProt P49902)
probe-labelled cysteine peptide fold change (10 µM): 0.129 | probe-labelled cysteine peptide fold change (50 µM): 0.15

NOL6_Q9H6R4_256+265_LHPCPPPDFFRPCR (UniProt Q9H6R4)
probe-labelled cysteine peptide fold change (10 µM): 0.00764 | probe-labelled cysteine peptide fold change (50 µM): -0.0545

NR3C1_P04150_457_AVEGQHNYLCAGR (UniProt P04150)
probe-labelled cysteine peptide fold change (10 µM): 0.0882 | probe-labelled cysteine peptide fold change (50 µM): -0.0223

NOL6_Q9H6R4_256_LHPCPPPDFFRPCR (UniProt Q9H6R4)
probe-labelled cysteine peptide fold change (10 µM): 0.0181 | probe-labelled cysteine peptide fold change (50 µM): 0.0433

NNT_Q13423_1073_TCDALQAK (UniProt Q13423)
probe-labelled cysteine peptide fold change (10 µM): -0.0433 | probe-labelled cysteine peptide fold change (50 µM): -0.145

NKAP_Q8N5F7_47_SHSCSR (UniProt Q8N5F7)
probe-labelled cysteine peptide fold change (10 µM): 0.0491 | probe-labelled cysteine peptide fold change (50 µM): 0.0658

NOL10_Q9BSC4_55_IELIQDFEMPTVCTTIK (UniProt Q9BSC4)
probe-labelled cysteine peptide fold change (10 µM): 0.065 | probe-labelled cysteine peptide fold change (50 µM): -0.00413

NOCT_Q9UK39_281_QFCIAVTHLK (UniProt Q9UK39)
probe-labelled cysteine peptide fold change (10 µM): -0.0478 | probe-labelled cysteine peptide fold change (50 µM): 0.216

NSUN4_Q96CB9_197_TLALLQTGCCR (UniProt Q96CB9)
probe-labelled cysteine peptide fold change (10 µM): 0.0618 | probe-labelled cysteine peptide fold change (50 µM): -0.126

NSMCE2_Q96MF7_210+215_AYCPQIGCSHTDIR (UniProt Q96MF7)
probe-labelled cysteine peptide fold change (10 µM): 0.0981 | probe-labelled cysteine peptide fold change (50 µM): 0.362

NPEPL1_Q8NDH3_404+414_CGDLVHPLVYCPELHFSEFTSAVADMK (UniProt Q8NDH3)
probe-labelled cysteine peptide fold change (10 µM): -0.0205 | probe-labelled cysteine peptide fold change (50 µM): -0.278

NLE1_Q9NVX2_152_FWDLSTETPHFTCK (UniProt Q9NVX2)
probe-labelled cysteine peptide fold change (10 µM): 0.00814 | probe-labelled cysteine peptide fold change (50 µM): 0.198

NKRF_O15226_453_DLVVYENSSNPVCTLNDTAQFNR (UniProt O15226)
probe-labelled cysteine peptide fold change (10 µM): 0.21 | probe-labelled cysteine peptide fold change (50 µM): 0.0134

NOL6_Q9H6R4_777_LAELLTQQHGLQCR (UniProt Q9H6R4)
probe-labelled cysteine peptide fold change (10 µM): 0.0373 | probe-labelled cysteine peptide fold change (50 µM): 0.134

NRDC_O43847_1027_ECEDTHLGEEVDR (UniProt O43847)
probe-labelled cysteine peptide fold change (10 µM): 0.131 | probe-labelled cysteine peptide fold change (50 µM): 0.225

NLRX1_Q86UT6_779_DLLLHDQCQITTLR (UniProt Q86UT6)
probe-labelled cysteine peptide fold change (10 µM): 0.0756 | probe-labelled cysteine peptide fold change (50 µM): 0.0636

NOL10_Q9BSC4_147_DFSYHYPSCDLYFVGASSEVYR (UniProt Q9BSC4)
probe-labelled cysteine peptide fold change (10 µM): -0.459 | probe-labelled cysteine peptide fold change (50 µM): -0.299

NOL9_Q5SY16_140_ALLLLPVEQGFTFSGICR (UniProt Q5SY16)
probe-labelled cysteine peptide fold change (10 µM): -0.058 | probe-labelled cysteine peptide fold change (50 µM): -0.376

NOB1_Q9ULX3_288_VFCSHCGNK (UniProt Q9ULX3)
probe-labelled cysteine peptide fold change (10 µM): 0.0852 | probe-labelled cysteine peptide fold change (50 µM): 0.0822

NSF_P46459_264_GILLYGPPGCGK (UniProt P46459)
probe-labelled cysteine peptide fold change (10 µM): -0.0125 | probe-labelled cysteine peptide fold change (50 µM): 0.000825

NLRC5_Q86WI3_917_KLDLSNNGLSVAGVHCVLR (UniProt Q86WI3)
probe-labelled cysteine peptide fold change (10 µM): -0.196 | probe-labelled cysteine peptide fold change (50 µM): 0.0138

NMD3_Q96D46_383_THLGHLLNPGDLVLGFDLANCNLNDEHVNK (UniProt Q96D46)
probe-labelled cysteine peptide fold change (10 µM): -0.0379 | probe-labelled cysteine peptide fold change (50 µM): -0.171

NRDE2_Q9H7Z3_900_AYEHALQDCLGDSCVSNPAPTDSCSR (UniProt Q9H7Z3)
probe-labelled cysteine peptide fold change (10 µM): 0.22 | probe-labelled cysteine peptide fold change (50 µM): 0.368

NOTCH1_P46531_1295_VNDFHCECR (UniProt P46531)
probe-labelled cysteine peptide fold change (10 µM): -0.0731 | probe-labelled cysteine peptide fold change (50 µM): -0.0244

NPLOC4_Q8TAT6_138_CVHCVPLEPFDEDYLNHLEPPVK (UniProt Q8TAT6)
probe-labelled cysteine peptide fold change (10 µM): 0.163 | probe-labelled cysteine peptide fold change (50 µM): 0.169

NSUN6_Q8TEA1_242_ILDLCAAPGGK (UniProt Q8TEA1)
probe-labelled cysteine peptide fold change (10 µM): 0.157 | probe-labelled cysteine peptide fold change (50 µM): -0.0703

NMNAT1_Q9HAN9_111_LEASDCDHQQNSPTLERPGR (UniProt Q9HAN9)
probe-labelled cysteine peptide fold change (10 µM): -0.0255 | probe-labelled cysteine peptide fold change (50 µM): -0.347

NMD3_Q96D46_321_QLEEFIVMECSIVQDIK (UniProt Q96D46)
probe-labelled cysteine peptide fold change (10 µM): 0.325 | probe-labelled cysteine peptide fold change (50 µM): 0.154

NKTR_P30414_9_GAQDRPQCHFDIEINREPVGR (UniProt P30414)
probe-labelled cysteine peptide fold change (10 µM): -0.165 | probe-labelled cysteine peptide fold change (50 µM): 0.518

NMI_Q13287_295_CSLGQPHIAYFEE (UniProt Q13287)
probe-labelled cysteine peptide fold change (10 µM): -0.0717 | probe-labelled cysteine peptide fold change (50 µM): -0.0357
